The values below come from PubChem BioAssay AID1347423 (Functional Genomics Laboratory (NCATS/FGL), 2020).

The whole screen tested about 52,000 sequences, of which about 210 (0.4%) were called active.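 The calls were made as follows: active = gene whose silencing raises cell survival under the drug, median off-target-corrected z-score across its silencing RNAs 2 or more; inactive = the rest.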 Some of the results follow.

A short description of the experiment: Resistance to Poly (ADP-Ribose) Polymerase inhibitor: Gene Identification via Genome-wide siRNA Screen. The following applies: mouse BRCA2 R2336H ES cells, olaparib, CellTiter-Glo viability; hits give high values. A digest of the protocol: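 Genome-wide siRNA screen (3 siRNAs/gene, 20 nM) in mouse ES cells carrying hypomorphic BRCA2 R2336H; olaparib 500 nM added 48 h post-transfection, CellTiter-Glo viability 72 h later. Normalized to plate-median negative control; MAD z-scores, gene median, seed-adjusted.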
In the case of “GCUGCUCAGAGUUAUGAUGTT against 1700088E04Rik”, the z-score was inactive: 0.292.

Regarding “GGAAGUGAAUAAAUUCCUUTT against 4930579E17Rik”, the z-score was inactive: 0.54.

As for “GGUCGUAAGACAGUUGUCCTT against 4932438H23Rik”, the z-score was inactive: 0.322.

Regarding CGUACUUAUUGUUCCUAUCTT against LOC626359, the z-score was inactive: 0.596.

GAGAACGCGUUUUUGGGACTT against Defcr5: the z-score is inactive: -0.876.

Turning to GGCAUGGUGUUUUACGUAUTT against Fgd6, the z-score is inactive: 0.215.

On to “GGUCGACCUCAGAGAUCUGTT against C030046M14Rik”, for which the z-score was inactive: 1.08.

With “GGGAUGGAGAAUCAAGAUATT against B930062P21Rik”, the z-score is inactive: 0.732.

On to CCGGAGUUGUACAAUGAUATT against Blk, for which the z-score was inactive: -0.407.

For the sequence GCUUUAUGCAGACAAACACTT against Zbtb8, the z-score is inactive: -0.229.

Take GGCCAUCUUUAGACAUAUUTT against Serpinf2: the z-score is inactive: -0.609.

Consider CGGGAAAUUCGUCUAUGUUTT against Arntl2, for which the z-score is inactive: -0.0806.

“GCCAAGUCUGCUUCACGAGTT against 6430598A04Rik”: the z-score is inactive: 0.907.

For UGCUGUUGGAGAGCAAAUATT against Slpi, the z-score was inactive: -0.582.

In the case of GCACGCUAUUGGCUAUGAGTT against BC052040, the z-score is inactive: 0.64.

For the sequence GGUUUCCAAACCCUUCACATT against Lor, the z-score was inactive: 1.38.

For the sequence GUUCCCAUGUUCUUGGUGUTT against Olfr203, the z-score was inactive: -0.0434.

As for CCCUUGGCCUUCCAAAUUGTT against Psg21, the z-score was inactive: 0.759.

GGUUAUUUUCUUCAUGACUTT against Fbxl19: the z-score was inactive: 3.

In the case of UACCAGAAGUACCUGUCCCTT against Lbx1h, the z-score was inactive: -2.2.

For CCACCUACUACAGAUAUGCTT against Wdr9, the z-score is inactive: 0.468.

In the case of GCUGUGCAGCCACAAGUGATT against Gpr142, the z-score was inactive: -0.417.

GGAGAAAGUGCGUCUAUAATT against Gdi3: the z-score was inactive: -1.21.

In the case of GGAUUCCACUCAAGUAUAATT against Gpr35, the z-score was inactive: 1.55.

GCUAAUCCUGACAUUUGGCTT against Crabp1: the z-score is inactive: 0.922.

“GGGACCACAAAUUUGAAAATT against A030012E10”: the z-score was inactive: 0.0238.

Turning to CUACACUCUCAUUAUGAACTT against Olfr138, the z-score was inactive: -1.1.

As to CGAGUUUGACCGGACCAUCTT against Ssna1, the z-score is inactive: -0.716.

In the case of GCUGUUAACUAUCUGGAUATT against Gpr73, the z-score is inactive: 0.148.

For GGUUUUUCGUUUCAAUGUGTT against Tgfb3, the z-score was inactive: 0.809.

In the case of GCGAGUCUCACAUCAGUGATT against Zfp537, the z-score was inactive: -1.21.

With GGUGGAAAUUCCUUAAAUATT against Herc2, the z-score was inactive: -1.27.

For the sequence CCAUUGGUUAGUGAAGAUUTT against Tmprss11c, the z-score was inactive: 1.35.

Consider “GGAAGAUCUACAUCGUGGGTT against C630013N10Rik”, for which the z-score is inactive: -0.401.

Turning to CCAUAGGAGAUCUGUUUUATT against Ripk4, the z-score is inactive: 0.959.

As to GGCUUACUAACAGUUUUUGTT against Gem, the z-score was inactive: -0.144.

For the sequence “GUCUCCACUGGUGCCUAUATT against 2310056K19Rik”, the z-score was inactive: -1.53.

For “GCCAUUCUUUGAAAAGAGGTT against 1190002A17Rik”, the z-score is inactive: 0.391.

GGAAGAACAAAUAGGUCGATT against Defb14: the z-score is inactive: -0.617.

Turning to GGAAAACCUUGUUCAAAGUTT against Npn3, the z-score was inactive: 0.791.

Consider CCUGAGGCUCUCAAAAACGTT against Matk, for which the z-score was inactive: 0.526.

In the case of CCAAGGUACAAUCUAACCATT against Pcoln3, the z-score is inactive: -1.33.

With GGACUGUGAUUGUUUCAGATT against Mep1a, the z-score is inactive: 0.558.

For the sequence GGAGAGCUAUCACAAAACATT against Olfr1018, the z-score is inactive: 0.0569.

As for GCUUAAGGGAUAACAUAUUTT against Svs2, the z-score is inactive: -1.04.

As to GCUGACAAGUGUAGCGUGUTT against Wtip, the z-score is inactive: -0.218.

AUAUUUCUGUCUUUCCUGGTT against Olfr1222: the z-score was inactive: -0.0417.

Take “GGCUCUUUGUUAAAUACCCTT against D930001I22Rik”: the z-score is inactive: 0.271.

For the sequence CGAACUGGCAUUCACAUGUTT against Tas2r120, the z-score was inactive: -0.75.

Regarding GCCUAAAAAGAGUGGGUCATT against Mllt1, the z-score is inactive: -2.11.

Take GGGUCUCAUUGACCACCAGTT against Plec1: the z-score is inactive: -1.95.

As for GGUCAAGAACCUUUAACUGTT against Pabpc1, the z-score is inactive: -2.47.

As to “GGCAAAGUUGCCAGAUGAATT against 1110005A03Rik”, the z-score is inactive: -0.504.

Consider GGUGGCAGACUGUGUUUAUTT against BC025206, for which the z-score is inactive: -2.14.

As for GGCCUCCUAAAAUCACAGCTT against Zfp292, the z-score was inactive: 0.59.

In the case of CGGGCAGCUAGAUUUCCAATT against S100a11, the z-score is inactive: 0.568.

GGGCACAUUCUCAAGACGUTT against Stx1b1: the z-score was inactive: -0.33.

Take GGUGAAGAUUGACAAGAAATT against D2Wsu81e: the z-score was inactive: 0.49.

Turning to “GCUACAAUCAAAAUUAUGCTT against 4930525K10Rik”, the z-score is inactive: 0.957.

Consider GGCAAGUUGACCGUGUUUUTT against Dtnb, for which the z-score is inactive: 0.351.

As for GGACAGGGAAAAGUCCCAUTT against Siat7f, the z-score is inactive: -0.33.

For the sequence CCUGACCAUGCUGUUAUAUTT against Dppa1, the z-score was inactive: -2.09.

For the sequence GGAUCAAGUGGUCAAGGUATT against Ilvbl, the z-score was inactive: -0.364.

GAACUGAAGAAGCAGAUUGTT against G1p2: the z-score is inactive: -0.609.

Regarding GGAAGAACCUUGUUUGUAUTT against Sectm1, the z-score was inactive: -1.21.

Regarding GGUUCUUUCAGAGUUGGCCTT against Mrpl3, the z-score is inactive: 0.764.

Regarding GCUUAUCAGGGUACAGCUUTT against Ipo7, the z-score was inactive: -1.21.

With GGAGCCCUUGCUCUUUAACTT against Folr4, the z-score is inactive: -0.571.

For the sequence GCAAAGGAUAUGCAAUUGGTT against Bap1, the z-score is inactive: -0.105.

As for GGCUGAAAAACUCAAUUAUTT against Boll, the z-score was inactive: 0.616.

GGUAAACAUCACUCCUUGGTT against Actrt1: the z-score is inactive: 0.551.

For the sequence GGAUGCUGACAAAAAUAUCTT against Iars, the z-score was inactive: -2.12.

In the case of GGUGGAAUUGAAGAGUUCATT against Rcor3, the z-score is inactive: 1.82.

As for GGUCCGGUCUCAGACUUCATT against Rabl4, the z-score is inactive: -1.09.

As to GGUAAUUACUUUCAUAAGGTT against Txnrd1, the z-score was inactive: 0.761.

For the sequence “CCUUGGUUUUCCCACUUCATT against 8030411F24Rik”, the z-score is inactive: 0.0406.

With “GCAUUCAGCCAUCGUAAUCTT against 5730409G15Rik”, the z-score was inactive: -1.44.

In the case of “CCGUUGUUUACCUUGUGGCTT against 5033406L14Rik”, the z-score was inactive: -0.576.

As to GGUGUCAUCCCUGAAAGAGTT against Tert, the z-score was inactive: -2.33.

Turning to GGUAGACCCUUUUUUUAAGTT against Tgm4, the z-score is inactive: 0.419.

In the case of GGCAUUCUGAAAAAAUAGCTT against Rb1cc1, the z-score is inactive: 0.572.

Consider “GGGCUGUGAUCAAACAUGGTT against 5430425C04Rik”, for which the z-score is inactive: -1.32.

In the case of GGACUUUGCCAUUCUUCACTT against Krtap6-1, the z-score was inactive: 0.291.

As for GCUUGGUGGAAAUUUCUUGTT against ORF5, the z-score was inactive: -0.11.

As for GGAACACUACCGUUUUGGGTT against Ehd2, the z-score was inactive: 0.579.

With GGAGCAAAGGAACAUGAAGTT against Slc12a6, the z-score is inactive: 1.3.

For the sequence CCUUCACAAGCAAUAAGUCTT against Bach, the z-score is inactive: 0.00503.

GCAACUUACUGGUAACUCCTT against Slc7a11: the z-score is inactive: -0.227.

As for GGCAAUGGUUCAGGAGAAATT against Col25a1, the z-score was inactive: -1.38.

Turning to GGAUUUGUUAAAGAUUCCGTT against Cpd, the z-score was inactive: -0.785.

As for UCCAGAAAGAGAAAGCCAUTT against Ifna6T, the z-score was inactive: 0.00573.

As to GGUCUUCCGAUGAACAAUCTT against Etfdh, the z-score was inactive: -1.16.

In the case of GCCAGGUUGACAAUGGUUCTT against Ttf2, the z-score is inactive: -0.444.

For the sequence GGAUAUCAUCAGUUUGGUUTT against LOC435565, the z-score was inactive: -0.913.

For the sequence CCACUGGUGGACAAACUUUTT against BC048546, the z-score was inactive: -0.395.

Regarding “GGCAUUUCUUGUGUUACGUTT against 1110018J18Rik”, the z-score is inactive: -0.0755.

In the case of GCAAACCCACACGAAGCAATT against BC043934, the z-score is inactive: -0.334.

As to “GGAGGUGUUGGCUCACAACTT against 8430419L09Rik”, the z-score was inactive: 2.14.

Turning to GGUUCACUCUGAAGACACCTT against Pkig, the z-score is inactive: -1.91.

Consider GGCAAUUGUGUAUCAAUAUTT against Acadl, for which the z-score is inactive: -0.573.

In the case of GGGCGAAAGCCAAUUUUAGTT against Ddx3y, the z-score is inactive: 1.18.

As to UGUCCAACAAGCUCUGUACTT against Olfr202, the z-score was inactive: -1.7.

As for GGACAUUGUCUACAAGUUGTT against Rnf110, the z-score is inactive: -1.62.

For CCUGUUCACAACUUUCCUATT against Olfr1241, the z-score is inactive: 1.31.
